In PMC4899616:
No constants are given. Whether binding was seen depends on the method and setting. Binding seen in cells or lysates may run through a third protein. These calls come from enrichment with a bait or labelling near it, and not all partners need be listed.

Biological target: BRP1-3xMyc (BRAT1 Partner 1, AT3G15120) (Arabidopsis thaliana)
Test: affinity purification with mass spectrometry; Anti-c-Myc Agarose on lysate of BRP1-3xMyc transgenic plants (seedling or flower), 4 °C 2.5 h, Lysis buffer 50 mM Tris pH 7.6, 150 mM NaCl, 5 mM MgCl2, 10% glycerol, 0.1% NP-40; eluted with 0.1 M ammonium hydroxide; LTQ mass spectrometry

B1: BRAT1 (Bromodomain and ATPase domain-containing protein 1, AT1G05910), endogenous (protein, UniProt F4IAE9 1-1210)
chain: MHPKRSSQGDGSVTKPVRTSDRLRRRPKLHGRSYLYYSSPNMLHNRKRNTKTRTAASQIAKMLHKGNRPARASNAAPIASDLRRSTRKRRISVNLEDYTDSSGAEDEDMMSPAYRTLRRRVHKNFSTSKSRKDMDAELAPRREGLRPRRSTTIANKRLKTESGADQDTSEEKDGQDETENGNELDDADDGENEVEAEDEGNGEDEGDGEDEGEEDGDDDEEGDEEQEGRKRYDLRNRAEVRRMPTGEINKQQQPRSPRRVLHQGMGTRVGRDGRRGGSRPHKRHRFTRTDDSDDSLLVDELDQGPAIPWARGGNRSGAPWLFGGLDTYGSSSLGLNVGASGWGHQSDGLAALTSGVQTAGPSSKGGADIQPLQINEDINFDDIGGLSEYINDLKEMVFFPLLYPEFFASYSITPPRGVLLCGPPGTGKTLIARALACAASKAGQKVSFYMRKGADVLSKWVGEAERQLKLLFEEAQRNQPSIIFFDEIDGLAPVRSSKQEQIHNSIVSTLLALMDGLDSRGQVVLIGATNRVDAIDGALRRPGRFDREFNFSLPGCEARAEILDIHTRKWKHPPTRELKEELAATCVGYCGADLKALCTEAAIRAFREKYPQVYTSDDKYAIDVGLVNVEKSHFVEAMSAITPAAHRGSVVQSRPLSPVVLPCLHRHLLESMSLISDIFPSSATSSELTKLSILTFGSAIPLVYRPRLLLLGGEGVGLDHLGPAILHELEKFPIHSLGLPSLLSDPGAKTPEEALVHIFSEARRTTPSILYIPMFNNWWENAHEQLRAVFLTLLEELPSNLPILLLATSYGELSDMEEQSVFDNRSVYTVDKPSSEDRSLFFDRLIEAALSVISGLNGKPDGPQPLPELPKVPKEPTGPKPAEVKAKVEAEQHALRRLRMCLRDVCNRILYDKRFSAFHFPVTDEDAPNYRSIIQIPMDTATLLQRVDTGQYLTCTPFLQDVDLIVRNAKAYNGDDYAGARIVSRAYELRDVVHGMLSQMDPALLTYCDKIAAEGGPSLIPDDLSGSILGLAPVVQMGTVTRTSARLRNVQPEVNLDRDYEGLKKPKKTTDAVSIDSAADKSQNQDSGQEMPSPDAANPQSAAPSPTDGDREDQSEPPSKEASAEDMSGDSCKGPAAKSDKEISSRTESVKGVFMERTDNYSIPQMERLYTRIMKGVLETLDKGLRDDDNNPKHSILRFLSEFAQHQANF
In the case of B1, the binding is reported as “binds”.
